In PubChem BioAssay AID194 (DTP/NCI, 2004):
The list is a part of this screen's results and no random one: it is rich in T/C values a quarter to a half above the control, in often repeated tests (any T/C) and in doses without a T/C. Further doses and runs are listed elsewhere. T/C: endpoint of the treated group in % of that of the vehicle group. Schedules are NCI's codes, taken here to give the interval after Q, in days (D) or hours (H), and the number of doses after X. Some doses were run more than once; the results are listed from low to high. Some doses have a count of surviving animals in place of a T/C: the source holds a T/C of zero for them, seemingly a mark for toxic or unscored doses. Some survivor counts are full or nearly so, which does not show that the dose was tolerated: the source hardly ever lists a survival T/C far under the control, and the zero likely stands for such cases as well. Counts of survivors are from the toxicity check (mostly the fifth day) where no day follows; animals may have died later. Where survival is the endpoint, the PubChem record calls one and a half times the control and up active, and a quarter to a half above the control has no call in these data; cut-offs in other NCI protocols can differ. Some T/C values are followed by the survivors on the day toxicity was checked, most often the fifth; without a count, all were alive then. Brackets with × give the number of equal values in this list.

Test system: BDF1 mice, B16 melanoma s.c., survival/tumor T/C
Assay: NCI In Vivo Anticancer Drug Screen. Data for tumor model B16 Melanoma (subcutaneous) in B6D2F1 (BDF1) mice
Procedure: The antitumor activity of compounds was measured in mice bearing transplantable tumors. Survival or tumor size were measured and the results are expressed as the measurement made in the treated group (T) divided by the measurement made in the vehicle treated control group (C). The tumor model used in this assay is B16 Melanoma (subcutaneous) in B6D2F1 (BDF1) mice

[1] = T/C endpoint: median survival time, dose: 100.0 mg/kg/injection, schedule: Q01DX009 (ip), vehicle: saline, higher T/C = longer survival

In the case of `Cc1ncc([N+](=O)[O-])n1CCO`, the survivor count (T/C endpoint: median survival time, dose: 600.0 mg/kg/injection, schedule: Q01DX009 (ip), vehicle: Klucel (hydroxypropylcellulose) (HPC), higher T/C = longer survival) is reported as 10 of 10.

With `O=P1(N(CCCl)CCCl)NCCCO1` (stereo not drawn) the T/C (T/C endpoint: median survival time, dose: 25.0 mg/kg/injection, schedule: Q01DX009 (ip), vehicle: saline, evaluated on day 29, higher T/C = longer survival) was 160 % of control, the T/C (T/C endpoint: median survival time, dose: 25.0 mg/kg/injection, schedule: Q01DX009 (ip), vehicle: saline, evaluated on day 59, higher T/C = longer survival) was 118 % of control and the T/C (T/C endpoint: median survival time, dose: 25.0 mg/kg/injection, schedule: Q01DX009 (ip), vehicle: saline, evaluated on day 60, higher T/C = longer survival) was 111, 115, 115 [5 of 6 alive], 130, 134, 135, 139, 152, 153, 155, 158 % of control. The T/C (T/C endpoint: median survival time, dose: 50.0 mg/kg/injection, schedule: Q01DX009 (ip), vehicle: saline, evaluated on day 59, higher T/C = longer survival) was 190 % of control, the T/C (T/C endpoint: median survival time, dose: 50.0 mg/kg/injection, schedule: Q01DX009 (ip), vehicle: saline, evaluated on day 60, higher T/C = longer survival) was 98, 105, 117, 118, 121, 126 (2×), 137 [5 of 6 alive], 145, 156 % of control and the survivor count (T/C endpoint: median survival time, dose: 50.0 mg/kg/injection, schedule: Q01DX009 (ip), vehicle: saline, higher T/C = longer survival) was 5 of 8 on day 29. For the same compound, the T/C (T/C endpoint: median survival time, dose: 75.0 mg/kg/injection, schedule: Q01DX001 (ip), vehicle: saline, higher T/C = longer survival) was 103, 112, 117 (3×), 125, 136 % of control, the T/C [1] was 88, 91, 107 (2×), 121, 128, 157 % of control and the survivor count [1] was 0 of 8 on day 29, 1 of 10 on day 59, 5 of 5, 6 of 6. For the same compound, the T/C (T/C endpoint: median survival time, dose: 150.0 mg/kg/injection, schedule: Q01DX001 (ip), vehicle: saline, higher T/C = longer survival) was 128, 130, 139, 141, 150, 152, 180 % of control, the survivor count (T/C endpoint: median survival time, dose: 240.0 mg/kg/injection, schedule: Q04DX003 (ip), vehicle: saline, higher T/C = longer survival) was 10 of 10 and the T/C (T/C endpoint: median survival time, dose: 300.0 mg/kg/injection, schedule: Q01DX001 (ip), vehicle: saline, evaluated on day 51, higher T/C = longer survival) was 192 % of control. The T/C (T/C endpoint: median survival time, dose: 300.0 mg/kg/injection, schedule: Q01DX001 (ip), vehicle: saline, evaluated on day 60, higher T/C = longer survival) was 136 [4 of 6 alive], 152, 153, 161, 167, 173, 176 % of control, the T/C (T/C endpoint: median tumor weight (est.), dose: 75.0 mg/kg/injection, schedule: Q01DX001 (ip), vehicle: saline, evaluated on day 14, higher T/C = larger tumour) was 35 and 56 % of control and the T/C (T/C endpoint: median tumor weight (est.), dose: 75.0 mg/kg/injection, schedule: Q01DX001 (ip), vehicle: saline, evaluated on day 15, higher T/C = larger tumour) was 72 and 93 % of control. The T/C (T/C endpoint: median tumor weight (est.), dose: 75.0 mg/kg/injection, schedule: Q01DX001 (ip), vehicle: saline, evaluated on day 18, higher T/C = larger tumour) was 54 % of control.

In the case of `CN1c2c(nc(N)[nH]c2=O)NCC1CCNc1ccc(C(=O)NC(CCC(=O)O)C(=O)O)cc1` (stereo not drawn), the T/C (T/C endpoint: median survival time, dose: 400.0 mg/kg/injection, schedule: Q01DX009 (ip), vehicle: saline, higher T/C = longer survival) is reported as 147 % of control, the T/C (T/C endpoint: median survival time, dose: 400.0 mg/kg/injection, schedule: Q04DX003 (ip), vehicle: saline, higher T/C = longer survival) is reported as 128 % of control and the T/C (T/C endpoint: median survival time, dose: 600.0 mg/kg/injection, schedule: Q01DX009 (ip), vehicle: saline, higher T/C = longer survival) is reported as 143 % of control. For the same compound, the T/C (T/C endpoint: median survival time, dose: 900.0 mg/kg/injection, schedule: Q01DX009 (ip), vehicle: saline, evaluated on day 50, higher T/C = longer survival) was 130 % of control, the T/C (T/C endpoint: median survival time, dose: 900.0 mg/kg/injection, schedule: Q01DX009 (ip), vehicle: saline, evaluated on day 60, higher T/C = longer survival) was 131 % of control and the T/C (T/C endpoint: median survival time, dose: 1200.0 mg/kg/injection, schedule: Q01DX009 (ip), vehicle: saline, higher T/C = longer survival) was 149 % of control. For the same compound, the T/C (T/C endpoint: median survival time, dose: 1200.0 mg/kg/injection, schedule: Q04DX003 (ip), vehicle: saline, higher T/C = longer survival) was 126 % of control and the T/C (T/C endpoint: median survival time, dose: 1800.0 mg/kg/injection, schedule: Q01DX001 (ip), vehicle: saline, higher T/C = longer survival) was 142 % of control.

For `Cc1c(N)nc(C(CC(N)=O)NCC(N)C(N)=O)nc1C(=O)NC(C(=O)NC(C)C(O)CC(=O)NC(C(=O)NC(OC1OC(C)C(N)C(O)C1O)C(O)c1nc(-c2nc(C(=O)NCCCC(N)CC(=O)NCCCNCCCCN)cs2)cs1)C(C)O)C(OC1OC(CO)C(O)C(O)C1OC1OC(CO)C(O)C(OC(N)=O)C1O)c1cnc[nH]1` (stereo not drawn), the T/C (T/C endpoint: median survival time, dose: 0.5 mg/kg/injection, schedule: Q01DX009 (ip), vehicle: saline, higher T/C = longer survival) was 145 % of control, the survivor count (T/C endpoint: median survival time, dose: 6.0 mg/kg/injection, schedule: Q01DX009 (ip), vehicle: saline, higher T/C = longer survival) was 9 of 10 on day 10 and the survivor count (T/C endpoint: median survival time, dose: 8.0 mg/kg/injection, schedule: Q01DX009 (ip), vehicle: saline, higher T/C = longer survival) was 7 of 10 on day 10.
